Binding signal data for 42 sequences are collected here from article PMC7819943, “Rice protein-binding microarrays: a tool to detect cis-acting elements near promoter regions in rice”.

Protein sequences, listed by entry. Tags and fused reporters are not part of them.
UniProt Q0JBA9, entry or part of it: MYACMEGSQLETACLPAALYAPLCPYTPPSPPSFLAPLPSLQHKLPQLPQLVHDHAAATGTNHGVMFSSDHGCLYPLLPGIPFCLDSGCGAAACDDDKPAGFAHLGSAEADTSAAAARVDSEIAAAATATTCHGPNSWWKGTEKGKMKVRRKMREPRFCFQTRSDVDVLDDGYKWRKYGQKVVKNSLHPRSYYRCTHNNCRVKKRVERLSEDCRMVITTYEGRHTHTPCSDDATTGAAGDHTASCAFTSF

The other results are listed elsewhere or left out.

This assay concerns the target OsWRKY34 (Oryza sativa, UniProt Q0JBA9 1-250). Put plainly: protein-binding microarray (RPBM); PBS, 2% BSA, 51.3 ng/ul salmon testes DNA, 50 uM zinc acetate, 200 nM TF, 25 C, 1 h; high values mean tight binding. The conditions noted are these: protein: recombinant; tags: N-terminal polyhistidine and DsRed monomer fusion (pET32a); label: CyDye5-dUTP incorporated in the synthesized complementary strand; 3' TTTTT single-stranded linker to array surface; dsDNA, one strand shown. An outline of the steps: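 Per-feature fluorescence intensity (arbitrary units), read on an Axon 4000B scanner, is the binding signal. Transcription factors carrying an N-terminal polyhistidine tag and DsRed fusion were expressed in E. coli BL21-CodonPlus and purified on Ni–NTA. A custom Agilent array, made double-stranded by primer extension with Cy5-dUTP and blocked with 2% BSA, was incubated with 200 nM protein in PBS, 2% BSA, salmon testes DNA and 50 µM zinc acetate at 25 °C for 1 h and then washed.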
Regarding “TTATTTATTCTACATCTGACTTTAGGATCTCGTTTATACCCGGAGTCACCTAGTGCAG”, the binding signal was 8520 fluorescence intensity (a.u.).

As for “TCTCCTTACCTGTTAACTTTCTCCCTGACAGCTATTGCAACGGAGTCACCTAGTGCAG”, the binding signal is 9520 fluorescence intensity (a.u.).

Consider “TGTTACCGGTTTCCGATCTGTACCGACATGTTTCCGTCCGCGGAGTCACCTAGTGCAG”, for which the binding signal is 8240 fluorescence intensity (a.u.).

On to “CATCCATTGCGTTGGCATCACTCATATTTCATCGAGAAAGCGGAGTCACCTAGTGCAG”, for which the binding signal was 8460 fluorescence intensity (a.u.).

As to “CTATATATAAACGAGCACATCTCGTCGTCCCTCGCCATTCCGGAGTCACCTAGTGCAG”, the binding signal was 10400 fluorescence intensity (a.u.).

For the sequence “TACTTAGCTAGCTAATCGCGTTGCTCTTTCTCGTACTATACGGAGTCACCTAGTGCAG”, the binding signal was 8980 fluorescence intensity (a.u.).

As to “CGGGTCATTCTTGGGTCGTGGGAGTCGGATTCGGGTTTCTCGGAGTCACCTAGTGCAG”, the binding signal was 9320 fluorescence intensity (a.u.).

Turning to “TGAAGGTGGGCTGCTCTAGTTGGGCTGGGCATTTTGTCGACGGAGTCACCTAGTGCAG”, the binding signal was 9000 fluorescence intensity (a.u.).

For “GAACTTTGGGTATCTCAATGGATTCGGGGTGCGGGTGCGACGGAGTCACCTAGTGCAG”, the binding signal was 10900 fluorescence intensity (a.u.).

In the case of “TGCGACGACGTTTCTACTTCTAGATGCCCATATCCACTAGCGGAGTCACCTAGTGCAG”, the binding signal was 8210 fluorescence intensity (a.u.).

With “ACGGAGCAAAATCTCTCTCTGCCTTGCGGCTTGCGTTCCGCGGAGTCACCTAGTGCAG”, the binding signal was 8080 fluorescence intensity (a.u.).

With “ATATATATATATATATATATATAGAGAGAGAGAGAGAGACCGGAGTCACCTAGTGCAG”, the binding signal is 8980 fluorescence intensity (a.u.).

For the sequence “GACGCCGTTGACTTTTTGACCAACGTTTGACCTTTCGTCTCGGAGTCACCTAGTGCAG”, the binding signal is 31400 fluorescence intensity (a.u.).

Take “CATCGCTTGTCATACACTATCCGCATTTACCTCTCACATGCGGAGTCACCTAGTGCAG”: the binding signal was 9810 fluorescence intensity (a.u.).

Regarding “GGTCTGGTTCTTCTTGATGCGAGGCTAGCTGACGTTTTTTCGGAGTCACCTAGTGCAG”, the binding signal is 17200 fluorescence intensity (a.u.).

As for “CTCTCTCTCTCTCTCTCTCTCTCTCTCCAACGCGCGCGCGCGGAGTCACCTAGTGCAG”, the binding signal is 8700 fluorescence intensity (a.u.).

In the case of “GTTGGCCGATACATGTACTTATATATATATATATATATATCGGAGTCACCTAGTGCAG”, the binding signal was 8860 fluorescence intensity (a.u.).

As for “CTCAAACCCTAGCCGTCCCAGCCTCGGCTTGACCAATGCCCGGAGTCACCTAGTGCAG”, the binding signal was 11500 fluorescence intensity (a.u.).

For the sequence “GTTGGTTTTCCTTAATTTACCGTGCTTTTGTAAATATTTTCGGAGTCACCTAGTGCAG”, the binding signal is 10400 fluorescence intensity (a.u.).

With “GTCATTTTAATTGCAAATGCTTTTATATGTTGTTTCTTTCCGGAGTCACCTAGTGCAG”, the binding signal was 9620 fluorescence intensity (a.u.).

Consider “GCCATGTGACTAGACCGAGCTAGCTCGCTCGATCGATCTCCGGAGTCACCTAGTGCAG”, for which the binding signal is 8510 fluorescence intensity (a.u.).

“TCCTCCTCTCTCTCTCTCACTCTTGTCTCTATCGGCGGGGCGGAGTCACCTAGTGCAG”: the binding signal was 12500 fluorescence intensity (a.u.).

For “ACAATCGCTTCGCTTTTCGCTCTACTCGTACGATCGTTCCCGGAGTCACCTAGTGCAG”, the binding signal is 10300 fluorescence intensity (a.u.).

Consider “GCGAAATATCTTCTTATTCCTTCTAGAAATTTCTTTCACACGGAGTCACCTAGTGCAG”, for which the binding signal is 10000 fluorescence intensity (a.u.).

“CTCTTATTCTTTCAGCCTGTCCGTCGTCTATCTGTCTGCACGGAGTCACCTAGTGCAG”: the binding signal is 9290 fluorescence intensity (a.u.).

Take “TTCATCACTCGATCGATCTCCTCACTTCACACACAAGCTCCGGAGTCACCTAGTGCAG”: the binding signal is 9050 fluorescence intensity (a.u.).

As for “TATTGTACCTGCTCTGAGCAGCTAGCTCCCGTACCACCATCGGAGTCACCTAGTGCAG”, the binding signal was 8670 fluorescence intensity (a.u.).

Turning to “CCCATTCTTTCACTTTTGACCTTTTTTTATCATTTTGTTTCGGAGTCACCTAGTGCAG”, the binding signal is 9510 fluorescence intensity (a.u.).

With “AGTCTTGCTATTTATGGGCATTTTTCTGACATCCTAGCATCGGAGTCACCTAGTGCAG”, the binding signal was 9120 fluorescence intensity (a.u.).

On to “TGCACTCACGTTTAGATCTGGTCCTGTACTGTTGAATTCCCGGAGTCACCTAGTGCAG”, for which the binding signal is 9890 fluorescence intensity (a.u.).

“ACTTTTTCTTCAAACTTTCAAGTTTTACATCATATCAAAACGGAGTCACCTAGTGCAG”: the binding signal is 8740 fluorescence intensity (a.u.).

In the case of “TCTGTTTATATTTCATGTCACTTTTCTTGTCCCTCGAATGCGGAGTCACCTAGTGCAG”, the binding signal is 9150 fluorescence intensity (a.u.).

Turning to “TTCTTTTGTTGTCCAATTCATTTCCATTTCTTGCCGTTTTCGGAGTCACCTAGTGCAG”, the binding signal is 8320 fluorescence intensity (a.u.).

Consider “GACAACGTTATTTAGGCTGTGTTCGTTTGTGTGAGATAGGCGGAGTCACCTAGTGCAG”, for which the binding signal was 9900 fluorescence intensity (a.u.).

As to “CTCCCCAATGTTGTGTTGGGACTTGGGACAGTGGGCTTTTCGGAGTCACCTAGTGCAG”, the binding signal was 8310 fluorescence intensity (a.u.).

Regarding “GGTTTTGCCATAACCCACGTTCGCATTCACCCACATACATCGGAGTCACCTAGTGCAG”, the binding signal is 8410 fluorescence intensity (a.u.).

As to “TCCACCCGTGCAGCCGCGCCGGCGACAGCCTCGATTATTCCGGAGTCACCTAGTGCAG”, the binding signal was 9310 fluorescence intensity (a.u.).

Turning to “CCGTCTATTCTACGCTGTTAAATACATTGTTCGTCCTATTCGGAGTCACCTAGTGCAG”, the binding signal was 9370 fluorescence intensity (a.u.).

For the sequence “GTTTTTTTTAATACTCCTTTTTTTCCCTTTCATTTCATTTCGGAGTCACCTAGTGCAG”, the binding signal was 8700 fluorescence intensity (a.u.).

Regarding “ATCGCCTCCTACCGCGCGTCCACCGGCCGACTGCCACTCGCGGAGTCACCTAGTGCAG”, the binding signal was 9120 fluorescence intensity (a.u.).

For the sequence “GGGTCGCAGGAAAGCTTCGGCTGGGTGGATGGGGATCACACGGAGTCACCTAGTGCAG”, the binding signal was 9370 fluorescence intensity (a.u.).

For the sequence “GGAAACTATTCTAATCTGTCGAGGGGATGTTCTCTCGTTTCGGAGTCACCTAGTGCAG”, the binding signal was 10500 fluorescence intensity (a.u.).
